# Test results reported in EP2965760A1, “Combination of antiretroviral agents for use in the prevention or treatment of chronic inflammatory diseases” (Université de Montpellier, priority 2014, dated 2016).
# For at least one compound, name, drawing or mass did not settle the structure.
# How the values were obtained:
# [1] = test system: SCC12B2 cell line; experiment: Organotypic 3D reconstructed skin culture, cell differentiation (marker staining); assay type: cell-based, human; details: SCC12B2-derived 3D reconstructed skin; result in words
# [2] = test system: keratinocytes; experiment: Cytokine production by keratinocytes after demethylating treatment (protocol of figure 5, Day 7); assay type: cell-based; details: after demethylation treatment
# Experimental: • Figures 1A-C represent the expression of cytokeratin 10 on SCC12B2-derived 3D reconstructed skin detected by immunohistochemistry. • Figure 1A represents untreated SCC12B2-derived 3D reconstructed skin. • Figure 1B represents SCC12B2-derived 3D reconstructed skin treated by AZT (100 µM) for 21 days: • Figure 1C: represents SCC12B2-derived 3D reconstructed skin treated by efavirenz (100 µM) for 21 days. Arrow indicates cytokeratin 10 expression. • Figures 2A-D represent the expression of psoriasine on SCC12B2-derived 3D reconstructed skin detected by immunofluorescence. • Figure 2A represents untreated SCC12B2-derived 3D reconstructed skin. • Figure 2B represents SCC12B2-derived 3D reconstructed skin treated by AZT (100 µM) for 21 days: • Figure 2C represents SCC12B2-derived 3D reconstructed skin treated by Lamivudine (100 µM) for 21 days. • Figure 2D represents SCC12B2-derived 3D reconstructed skin treated by AZT (100 µM) and Lamivudine (100 µM) for 21 days. […]
structure (smiles),measurement,setting,value
Cc1cc(/C=C/C#N)cc(C)c1Nc1ccnc(Nc2ccc(C#N)cc2)n1 [Rilpivirine],effect on cell differentiation,[1],no or minor effects
same,IL17A expression,[2],undetectable
